PubChem BioAssay AID1224831 – NIAID – 2016
The whole screen tested about 3,500 reagents; shown is a random part of them. Over the whole deposit, 731 (21%) got an active call. 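Active means either lowered or raised reporter signal; the gene-median score did not drive the per-siRNA calls.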 Reagents against one gene are numbered here.

- Test: 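Retesting screen hits on the TLR4-driven TNF response with six separate siRNAs each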 (follow-up of hits)
- Cell system: human THP-1 B5 monocytic leukaemia cells carrying a TNF promoter luciferase reporter, made macrophage-like with PMA
- Knock-down reagent: single siRNA against human genes, 50 nM
- Timing: about 68 h of knock-down, then 4 h LPS
- Challenge: LPS (Salmonella minnesota, TLR-grade) at 10 ng/ml for 4 h; PMA 5 ng/ml present during knock-down
- Measurement: 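TNF promoter reporter read as dual luciferase ratio after 4 h LPS, normalised per plate to its median, given as replicate mean robust z-score per siRNA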
- Reading the numbers: TNF reporter z-score: higher = stronger LPS-induced TNF reporter signal; z-score, median over gene's siRNAs: higher = stronger TNF reporter signal across the gene's siRNAs
- Active means: 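Active when the replicate mean z-score is about -1 or lower, or about 1.5 or higher; lowered and raised TNF reporter signal both count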
- Calls: active = changed TNF reporter (either direction); inactive = little change

gene knocked down,reagent no.,"TNF reporter z-score, replicate mean","z-score, median over gene's siRNAs",call
KCNJ5 (potassium inwardly rectifying channel subfamily J member 5),1,-0.81,0.33,inactive
KCNJ5 (potassium inwardly rectifying channel subfamily J member 5),2,0.78,0.33,inactive
KCNJ5 (potassium inwardly rectifying channel subfamily J member 5),3,-0.15,0.33,inactive
KCNJ5 (potassium inwardly rectifying channel subfamily J member 5),4,0.47,0.33,inactive
KCNJ5 (potassium inwardly rectifying channel subfamily J member 5),5,0.76,0.33,inactive
KCNJ5 (potassium inwardly rectifying channel subfamily J member 5),6,0.19,0.33,inactive
HSP90B1 (heat shock protein 90 beta family member 1),1,-1.57,-1.38,active
HSP90B1 (heat shock protein 90 beta family member 1),2,-1.89,-1.38,active
HSP90B1 (heat shock protein 90 beta family member 1),3,-0.68,-1.38,inactive
HSP90B1 (heat shock protein 90 beta family member 1),4,-1.19,-1.38,active
HSP90B1 (heat shock protein 90 beta family member 1),5,-1.97,-1.38,active
HSP90B1 (heat shock protein 90 beta family member 1),6,-0.52,-1.38,inactive
PICK1 (protein interacting with PRKCA 1),1,1.21,0.265,inactive
PICK1 (protein interacting with PRKCA 1),2,0.05,0.265,inactive
PICK1 (protein interacting with PRKCA 1),3,-1.53,0.265,active
PICK1 (protein interacting with PRKCA 1),4,0.93,0.265,inactive
PICK1 (protein interacting with PRKCA 1),5,-0.04,0.265,inactive
PICK1 (protein interacting with PRKCA 1),6,0.48,0.265,inactive
ZDHHC4 (zDHHC palmitoyltransferase 4),1,-0.52,-0.25,inactive
ZDHHC4 (zDHHC palmitoyltransferase 4),2,-0.52,-0.25,inactive
ZDHHC4 (zDHHC palmitoyltransferase 4),3,-0.31,-0.25,inactive
ZDHHC4 (zDHHC palmitoyltransferase 4),4,0.54,-0.25,inactive
ZDHHC4 (zDHHC palmitoyltransferase 4),5,-0.19,-0.25,inactive
ZDHHC4 (zDHHC palmitoyltransferase 4),6,0.96,-0.25,inactive
TSPOAP1 (TSPO associated protein 1),1,-0.77,-0.685,inactive
TSPOAP1 (TSPO associated protein 1),2,-1.24,-0.685,active
TSPOAP1 (TSPO associated protein 1),3,-0.6,-0.685,inactive
TSPOAP1 (TSPO associated protein 1),4,-1.23,-0.685,active
TSPOAP1 (TSPO associated protein 1),5,-0.38,-0.685,inactive
TSPOAP1 (TSPO associated protein 1),6,2.07,-0.685,active
ZAP70 (zeta chain of T cell receptor associated protein kinase 70),1,-0.02,0.03,inactive
ZAP70 (zeta chain of T cell receptor associated protein kinase 70),2,-0.04,0.03,inactive
ZAP70 (zeta chain of T cell receptor associated protein kinase 70),3,0.67,0.03,inactive
ZAP70 (zeta chain of T cell receptor associated protein kinase 70),4,-0.25,0.03,inactive
ZAP70 (zeta chain of T cell receptor associated protein kinase 70),5,0.28,0.03,inactive
ZAP70 (zeta chain of T cell receptor associated protein kinase 70),6,0.08,0.03,inactive
DNAJA4 (DnaJ heat shock protein family (Hsp40) member A4),1,0.23,0.33,inactive
DNAJA4 (DnaJ heat shock protein family (Hsp40) member A4),2,0.43,0.33,inactive
DNAJA4 (DnaJ heat shock protein family (Hsp40) member A4),3,1.37,0.33,inactive
DNAJA4 (DnaJ heat shock protein family (Hsp40) member A4),4,0.55,0.33,inactive
DNAJA4 (DnaJ heat shock protein family (Hsp40) member A4),5,-0.01,0.33,inactive
DNAJA4 (DnaJ heat shock protein family (Hsp40) member A4),6,-0.81,0.33,inactive
HAGH (hydroxyacylglutathione hydrolase),1,-0.28,-0.565,inactive
HAGH (hydroxyacylglutathione hydrolase),2,1.95,-0.565,active
HAGH (hydroxyacylglutathione hydrolase),3,-0.85,-0.565,inactive
HAGH (hydroxyacylglutathione hydrolase),4,-1.31,-0.565,active
HAGH (hydroxyacylglutathione hydrolase),5,10.3,-0.565,active
HAGH (hydroxyacylglutathione hydrolase),6,-0.9,-0.565,inactive
RWDD2B (RWD domain containing 2B),1,-1.05,-0.47,active
RWDD2B (RWD domain containing 2B),2,0.71,-0.47,inactive
RWDD2B (RWD domain containing 2B),3,0.3,-0.47,inactive
RWDD2B (RWD domain containing 2B),4,-0.61,-0.47,inactive
RWDD2B (RWD domain containing 2B),5,-0.82,-0.47,inactive
RWDD2B (RWD domain containing 2B),6,-0.33,-0.47,inactive
RPGRIP1 (RPGR interacting protein 1),1,1.53,0.47,active
RPGRIP1 (RPGR interacting protein 1),2,0.01,0.47,inactive
RPGRIP1 (RPGR interacting protein 1),3,0.35,0.47,inactive
RPGRIP1 (RPGR interacting protein 1),4,2.71,0.47,active
RPGRIP1 (RPGR interacting protein 1),5,0.59,0.47,inactive
RPGRIP1 (RPGR interacting protein 1),6,-0.09,0.47,inactive
TIGD6 (tigger transposable element derived 6),1,0.35,0.3,inactive
TIGD6 (tigger transposable element derived 6),2,0.18,0.3,inactive
TIGD6 (tigger transposable element derived 6),3,3.29,0.3,active
TIGD6 (tigger transposable element derived 6),4,0.07,0.3,inactive
TIGD6 (tigger transposable element derived 6),5,0.25,0.3,inactive
TIGD6 (tigger transposable element derived 6),6,3.69,0.3,active
TCEAL1 (transcription elongation factor A like 1),1,1.71,-0.005,active
TCEAL1 (transcription elongation factor A like 1),2,0,-0.005,inactive
TCEAL1 (transcription elongation factor A like 1),3,-0.16,-0.005,inactive
TCEAL1 (transcription elongation factor A like 1),4,1.77,-0.005,active
TCEAL1 (transcription elongation factor A like 1),5,-0.14,-0.005,inactive
TCEAL1 (transcription elongation factor A like 1),6,-0.01,-0.005,inactive
CLEC4A (C-type lectin domain family 4 member A),1,-0.61,0.03,inactive
CLEC4A (C-type lectin domain family 4 member A),2,-0.22,0.03,inactive
CLEC4A (C-type lectin domain family 4 member A),3,1.8,0.03,active
CLEC4A (C-type lectin domain family 4 member A),4,0.28,0.03,inactive
CLEC4A (C-type lectin domain family 4 member A),5,-0.51,0.03,inactive
CLEC4A (C-type lectin domain family 4 member A),6,3.95,0.03,active
ATM (ATM serine/threonine kinase),1,-0.28,0.09,inactive
ATM (ATM serine/threonine kinase),2,2.36,0.09,active
ATM (ATM serine/threonine kinase),3,-0.8,0.09,inactive
ATM (ATM serine/threonine kinase),4,-0.3,0.09,inactive
ATM (ATM serine/threonine kinase),5,1.49,0.09,inactive
ATM (ATM serine/threonine kinase),6,0.46,0.09,inactive
KCTD17 (potassium channel tetramerization domain containing 17),1,0.66,-0.115,inactive
KCTD17 (potassium channel tetramerization domain containing 17),2,-0.15,-0.115,inactive
KCTD17 (potassium channel tetramerization domain containing 17),3,-0.36,-0.115,inactive
KCTD17 (potassium channel tetramerization domain containing 17),4,-1.64,-0.115,active
KCTD17 (potassium channel tetramerization domain containing 17),5,-0.08,-0.115,inactive
KCTD17 (potassium channel tetramerization domain containing 17),6,0.49,-0.115,inactive
MSL3 (MSL complex subunit 3),1,0.24,0.32,inactive
MSL3 (MSL complex subunit 3),2,0.75,0.32,inactive
MSL3 (MSL complex subunit 3),3,-1.03,0.32,active
MSL3 (MSL complex subunit 3),4,0.2,0.32,inactive
MSL3 (MSL complex subunit 3),5,0.4,0.32,inactive
MSL3 (MSL complex subunit 3),6,3.08,0.32,active
KDM7A (lysine demethylase 7A),1,0.69,0.26,inactive
KDM7A (lysine demethylase 7A),2,0.73,0.26,inactive
KDM7A (lysine demethylase 7A),3,0.91,0.26,inactive
KDM7A (lysine demethylase 7A),4,-0.17,0.26,inactive
KDM7A (lysine demethylase 7A),5,-0.9,0.26,inactive
KDM7A (lysine demethylase 7A),6,-0.39,0.26,inactive
XPO1 (exportin 1),1,2.33,2.6,active
XPO1 (exportin 1),2,3.3,2.6,active
XPO1 (exportin 1),3,2.86,2.6,active
XPO1 (exportin 1),4,-0.55,2.6,inactive
XPO1 (exportin 1),5,2.86,2.6,active
XPO1 (exportin 1),6,1.55,2.6,active

Records listed so far whose gene name starts with C or c (6):
gene knocked down,reagent no.,"TNF reporter z-score, replicate mean","z-score, median over gene's siRNAs",call
CLEC4A (C-type lectin domain family 4 member A),1,-0.61,0.03,inactive
CLEC4A (C-type lectin domain family 4 member A),2,-0.22,0.03,inactive
CLEC4A (C-type lectin domain family 4 member A),3,1.8,0.03,active
CLEC4A (C-type lectin domain family 4 member A),4,0.28,0.03,inactive
CLEC4A (C-type lectin domain family 4 member A),5,-0.51,0.03,inactive
CLEC4A (C-type lectin domain family 4 member A),6,3.95,0.03,active
